From patent US20220096512A1, “WATER-BASED ANTIFUNGAL COMPOSITIONS” (Sigma-Aldrich Co. LLC, priority 2019, published 2022)
Converted amounts (≈) assume the structure as drawn.

System: Candida albicans
Assay: Diffusion disc MIC testing against Candida albicans
Format: cell-based
Conditions: diffusion paper disc, 10 μL applied, incubated overnight at 30° C., average of three experiments, read-out: Inhibition of Candida albicans (MIC, lower concentration at which inhibition could be visualized)
Procedure: Minimum inhibitory concentration (MIC) testing was determined for the inventive nystatin formulation described herein, along with comparative antifungal agents.
Nystatin (Solid) and amphotericin were dissolved in DMF in 1 mg/mL. Econazole nitrate was dissolved in PBS to achieve 1 mg/mL. Nystatin formulation diluted with PBS to achieve the same potency as Nystatin (Solid).
Antibiotic medium 19 was sterilized in autoclave, after sterilization when the temperature lowered to 45° C. and 1 mL from spore suspension was added. 8 mL from this mixture dispensed to each petri dish.
On each dish 6 sterile diffusion paper disc were placed, 10 μL from each antibiotic were applied in 10, 15, 20, 25, 30, 35 μg/mL concentrations. Where MIC concentrations were below 10, lower concentrations were used: 2, 5, 7.5 μg/mL
The petri dishes were incubated overnight at 30° C. The MIC were determined as the lower concentration that inhibition could be visualized.

- MIC: 16 µg/mL (≈ 17.3 µM)
SMILES: C[C@@H]1[C@H](O)[C@@H](C)/C=C/C=C/C=C/C=C/C=C/C=C/C=C/[C@H](O[C@@H]2O[C@H](C)[C@@H](O)[C@H](N)[C@@H]2O)C[C@@H]2O[C@](O)(C[C@@H](O)C[C@@H](O)[C@H](O)CC[C@@H](O)C[C@@H](O)CC(=O)O[C@H]1C)C[C@H](O)[C@H]2C(=O)O [Amphotericin, Amphotericin B]
